{"source": "patent US10336792B2", "about": "(priority 2014, dated 2019)", "type_in_all_cases": "cell-based", "key": {"[1]": {"tested_on": "Bacillus subtilis (strain BR151)", "details": "MHC on hRBC / MIC B. subtilis", "method": "(§1) Antimicrobial activity was assayed against Bacillus subtilis (strain BR151), Escherichia coli (strain DH5α) and Pseudomonas aeruginosa (strain PA01). Microdilution broth method was used to determine the minimal inhibitory concentration (MIC). A colony of bacteria was grown in LB-medium overnight at 37° C. The concentration was quantified by measuring absorbance at 600 nm and diluted to OD600=0.1 (1×10^8 CFU/mL). The samples were prepared as stock solutions of 1 mg mL^−1 in H2O and diluted serially by ⅔ in nutrient LB in a 96-well microtiterplate (Cornstar, polypropylene, untreated). The sample solutions (50 μL) were mixed with the diluted bacterial suspension with an OD600 nm of 0.001 (50 μL). […] The plates were incubated at 37° C. until satisfactory growth (18-24 h). For each test, two columns of the plate were kept for sterility control (SC, broth only) and growth control (GC, broth with bacterial inoculums, no antibiotics). 10 μL of a solution of MTT (0.1% in H2O) was added to each well. The minimal inhibitory concentration (MIC) was defined as the lowest concentration of the antimicrobial substance (peptide dendrimer) that inhibited visible growth of the tested bacteria (yellow) with the unaided eye. For microbiological study the linear peptide LysTyrLysLysAlaLeuLysLysLeuAlaLysLeuLeu (SEQ ID No. 1) was used as reference.\n(§2) The AMPD library was tested for their antimicrobial activity against B. subtilis BR151, a Gram-positive bacterium and E. coli DH5α, another Gram-negative bacterium, to cover a broader spectrum of different bacteria. […] Therefore no explicit SAR can be established, but clearly the hydrophobic amino acids Ala and Tyr seem to have a significant influence in reducing activity."}, "[2]": {"tested_on": "Escherichia coli (strain DH5α)", "details": "MHC on hRBC / MIC E. coli", "method": "as §1, §2"}, "[3]": {"tested_on": "Pseudomonas aeruginosa (strain PA01)", "details": "MHC on hRBC / MIC PAO1", "method": "as §1\nAll peptides were tested for their activity against P. aeruginosa PAO1 in a broth dilution assay (Wiegand, I. et al., 2008, Nat. Protoc., 3, 163-75; Clinical and Laboratory Standards Institute document M7-A7 7th Edition) to determine the MIC (minimal inhibitory concentration) values. The stock solutions of the peptide dendrimers were diluted serially by ⅔ in nutrient LB in 96-well microtiter plates. Bacteria were grown in nutrient LB overnight at 37° C. After dilution the bacteria were added to the peptides and incubated overnight (18-24 h) at 37° C. […] The position of the amino acids between the branching units seems to be optimal if the hydrophobic amino acid is the first counting from C-terminus and the charged one is on the second position. Introducing Ala as additional hydrophobic amino acid reduces activity (MSt-120). […] Also assembling charged or hydrophobic sections between the branching units leads to loss of activity whereas altering L-amino acids to D-amino acids maintains activity leading to the hypothesis that the mechanism of action should not be receptor mediated."}}, "note": "Positions of bridges follow the written chain, without caps; N, C: chain ends. Non-standard residues stand in square brackets, D forms with d. Residues, ends and D or L forms follow the SMILES beside them. Groups on a side chain read outwards from the residue. Chains are numbered I, II in the order given."}
{"smiles": "CC(C)C[C@H](NC(=O)[C@H](CCCCN)NC(=O)[C@H](CCCCNC(=O)[C@H](CC(C)C)NC(=O)[C@H](CCCCN)NC(=O)[C@H](CCCCNC(=O)[C@H](CC(C)C)NC(=O)[C@H](CCCCN)NC(=O)[C@H](CCCCNC(=O)[C@H](Cc1ccc(O)cc1)NC(=O)[C@@H](N)CCCCN)NC(=O)[C@H](Cc1ccc(O)cc1)NC(=O)[C@@H](N)CCCCN)NC(=O)[C@H](CC(C)C)NC(=O)[C@H](CCCCN)NC(=O)[C@H](CCCCNC(=O)[C@H](Cc1ccc(O)cc1)NC(=O)[C@@H](N)CCCCN)NC(=O)[C@H](Cc1ccc(O)cc1)NC(=O)[C@@H](N)CCCCN)NC(=O)[C@H](CC(C)C)NC(=O)[C@H](CCCCN)NC(=O)[C@H](CCCCNC(=O)[C@H](CC(C)C)NC(=O)[C@H](CCCCN)NC(=O)[C@H](CCCCNC(=O)[C@H](Cc1ccc(O)cc1)NC(=O)[C@@H](N)CCCCN)NC(=O)[C@H](Cc1ccc(O)cc1)NC(=O)[C@@H](N)CCCCN)NC(=O)[C@H](CC(C)C)NC(=O)[C@H](CCCCN)NC(=O)[C@H](CCCCNC(=O)[C@H](Cc1ccc(O)cc1)NC(=O)[C@@H](N)CCCCN)NC(=O)[C@H](Cc1ccc(O)cc1)NC(=O)[C@@H](N)CCCCN)C(N)=O", "note": "[MSt-114, (KY)8(KKL)4(KKL)2(KKL)] (I: H-KYK([Tyr-Lys])KLKKLKKL-NH2 / II: H-KYK([Tyr-Lys])KLKKL / III: H-KYK([Tyr-Lys])KL / IV: H-KYK([Tyr-Lys])KL; amide I:6-IV:C, I:9-II:C, II:6-III:C)", "values": [{"measurement": "TI (MHC/MIC), B. subtilis BR151", "setting": "[1]", "value": 48}, {"measurement": "TI (MHC/MIC), E. coli DH5α", "setting": "[2]", "value": 18}, {"measurement": "TI (therapeutic index = MHC/MIC), P. aeruginosa PAO1", "setting": "[3]", "value": 314}]}
{"smiles": "CC(C)C[C@H](NC(=O)[C@H](CCCCN)NC(=O)[C@H](CCCCNC(=O)[C@H](CC(C)C)NC(=O)[C@H](CCCCN)NC(=O)[C@H](CCCCNC(=O)[C@H](CC(C)C)NC(=O)[C@H](CCCCN)NC(=O)[C@@H](N)CCCCN)NC(=O)[C@H](CC(C)C)NC(=O)[C@H](CCCCN)NC(=O)[C@@H](N)CCCCN)NC(=O)[C@H](CC(C)C)NC(=O)[C@H](CCCCN)NC(=O)[C@H](CCCCNC(=O)[C@H](CC(C)C)NC(=O)[C@H](CCCCN)NC(=O)[C@@H](N)CCCCN)NC(=O)[C@H](CC(C)C)NC(=O)[C@H](CCCCN)NC(=O)[C@@H](N)CCCCN)C(N)=O", "note": "[MSt-119, (KKL)4(KKL)2(KKL)] (I: H-KKLK([Leu-Lys-Lys])KLKKL-NH2 / II: H-KKLK([Leu-Lys-Lys])KL; amide I:7-II:C)", "values": [{"measurement": "TI (therapeutic index = MHC/MIC), P. aeruginosa PAO1", "setting": "[3]", "value": 226}]}
{"smiles": "CC(C)C[C@H](NC(=O)[C@H](CC(C)C)NC(=O)[C@H](CCCCNC(=O)[C@H](CC(C)C)NC(=O)[C@H](CC(C)C)NC(=O)[C@H](CCCCNC(=O)[C@H](CCCCN)NC(=O)[C@H](CCCCN)NC(=O)[C@H](CCCCNC(=O)[C@H](CCCCN)NC(=O)[C@@H](N)CCCCN)NC(=O)[C@H](CCCCN)NC(=O)[C@@H](N)CCCCN)NC(=O)[C@H](CCCCN)NC(=O)[C@H](CCCCN)NC(=O)[C@H](CCCCNC(=O)[C@H](CCCCN)NC(=O)[C@@H](N)CCCCN)NC(=O)[C@H](CCCCN)NC(=O)[C@@H](N)CCCCN)NC(=O)[C@H](CC(C)C)NC(=O)[C@H](CC(C)C)NC(=O)[C@H](CCCCNC(=O)[C@H](CCCCN)NC(=O)[C@H](CCCCN)NC(=O)[C@H](CCCCNC(=O)[C@H](CCCCN)NC(=O)[C@@H](N)CCCCN)NC(=O)[C@H](CCCCN)NC(=O)[C@@H](N)CCCCN)NC(=O)[C@H](CCCCN)NC(=O)[C@H](CCCCN)NC(=O)[C@H](CCCCNC(=O)[C@H](CCCCN)NC(=O)[C@@H](N)CCCCN)NC(=O)[C@H](CCCCN)NC(=O)[C@@H](N)CCCCN)C(N)=O", "note": "[MSt-140, (KK)8(KKK)4(KLL)2(KLL)] (I: H-KKK([Lys-Lys])KKKLLKLL-NH2 / II: H-KKK([Lys-Lys])KKKLL / III: H-KKK([Lys-Lys])KK / IV: H-KKK([Lys-Lys])KK; amide I:6-IV:C, I:9-II:C, II:6-III:C)", "values": [{"measurement": "TI (MHC/MIC), B. subtilis BR151", "setting": "[1]", "value": 10}, {"measurement": "TI (MHC/MIC), E. coli DH5α", "setting": "[2]", "value": "<1"}]}
{"smiles": "CC(C)C[C@H](NC(=O)[C@H](CCCNC(=N)N)NC(=O)[C@H](CCCCNC(=O)[C@H](CC(C)C)NC(=O)[C@H](CCCNC(=N)N)NC(=O)[C@H](CCCCNC(=O)[C@H](CC(C)C)NC(=O)[C@H](CCCNC(=N)N)NC(=O)[C@H](CCCCNC(=O)[C@H](CC(C)C)NC(=O)[C@@H](N)CCCNC(=N)N)NC(=O)[C@H](CC(C)C)NC(=O)[C@@H](N)CCCNC(=N)N)NC(=O)[C@H](CC(C)C)NC(=O)[C@H](CCCNC(=N)N)NC(=O)[C@H](CCCCNC(=O)[C@H](CC(C)C)NC(=O)[C@@H](N)CCCNC(=N)N)NC(=O)[C@H](CC(C)C)NC(=O)[C@@H](N)CCCNC(=N)N)NC(=O)[C@H](CC(C)C)NC(=O)[C@H](CCCNC(=N)N)NC(=O)[C@H](CCCCNC(=O)[C@H](CC(C)C)NC(=O)[C@H](CCCNC(=N)N)NC(=O)[C@H](CCCCNC(=O)[C@H](CC(C)C)NC(=O)[C@@H](N)CCCNC(=N)N)NC(=O)[C@H](CC(C)C)NC(=O)[C@@H](N)CCCNC(=N)N)NC(=O)[C@H](CC(C)C)NC(=O)[C@H](CCCNC(=N)N)NC(=O)[C@H](CCCCNC(=O)[C@H](CC(C)C)NC(=O)[C@@H](N)CCCNC(=N)N)NC(=O)[C@H](CC(C)C)NC(=O)[C@@H](N)CCCNC(=N)N)C(N)=O", "note": "[MSt-242, (RL)8(KRL)4(KRL)2(KRL)] (I: H-RLK([Leu-Arg])RLKRLKRL-NH2 / II: H-RLK([Leu-Arg])RLKRL / III: H-RLK([Leu-Arg])RL / IV: H-RLK([Leu-Arg])RL; amide I:6-IV:C, I:9-II:C, II:6-III:C)", "values": [{"measurement": "TI (MHC/MIC), B. subtilis BR151", "setting": "[1]", "value": 8}, {"measurement": "TI (MHC/MIC), E. coli DH5α", "setting": "[2]", "value": 29}, {"measurement": "TI (therapeutic index = MHC/MIC), P. aeruginosa PAO1", "setting": "[3]", "value": 11}]}
{"smiles": "CC(C)C[C@H](NC(=O)[C@H](CC(C)C)NC(=O)[C@H](CCCCN)NC(=O)[C@H](C)NC(=O)[C@H](CC(C)C)NC(=O)[C@H](CCCCN)NC(=O)[C@H](CCCCN)NC(=O)[C@H](CC(C)C)NC(=O)[C@H](C)NC(=O)[C@H](CCCCN)NC(=O)[C@H](CCCCN)NC(=O)[C@H](Cc1ccc(O)cc1)NC(=O)[C@@H](N)CCCCN)C(N)=O", "note": "[RHe-9, (KYKKALKKLAKLL), reference compound] (H-KYKKALKKLAKLL-NH2)", "values": [{"measurement": "TI (MHC/MIC), B. subtilis BR151", "setting": "[1]", "value": 105}, {"measurement": "TI (MHC/MIC), E. coli DH5α", "setting": "[2]", "value": ">419"}]}
{"smiles": "CC(C)C[C@@H](NC(=O)[C@@H](CCCCN)NC(=O)[C@@H](CCCCNC(=O)[C@@H](CC(C)C)NC(=O)[C@@H](CCCCN)NC(=O)[C@@H](CCCCNC(=O)[C@@H](CC(C)C)NC(=O)[C@@H](CCCCN)NC(=O)[C@@H](CCCCNC(=O)[C@@H](CC(C)C)NC(=O)[C@H](N)CCCCN)NC(=O)[C@@H](CC(C)C)NC(=O)[C@H](N)CCCCN)NC(=O)[C@@H](CC(C)C)NC(=O)[C@@H](CCCCN)NC(=O)[C@@H](CCCCNC(=O)[C@@H](CC(C)C)NC(=O)[C@H](N)CCCCN)NC(=O)[C@@H](CC(C)C)NC(=O)[C@H](N)CCCCN)NC(=O)[C@@H](CC(C)C)NC(=O)[C@@H](CCCCN)NC(=O)[C@@H](CCCCNC(=O)[C@@H](CC(C)C)NC(=O)[C@@H](CCCCN)NC(=O)[C@@H](CCCCNC(=O)[C@@H](CC(C)C)NC(=O)[C@H](N)CCCCN)NC(=O)[C@@H](CC(C)C)NC(=O)[C@H](N)CCCCN)NC(=O)[C@@H](CC(C)C)NC(=O)[C@@H](CCCCN)NC(=O)[C@@H](CCCCNC(=O)[C@@H](CC(C)C)NC(=O)[C@H](N)CCCCN)NC(=O)[C@@H](CC(C)C)NC(=O)[C@H](N)CCCCN)C(N)=O", "note": "[MSt-181, (kl)8(kkl)4(kkl)2(kkl)] (I: H-[dK][dL][dK]([dL-dK])[dK][dL][dK][dK][dL][dK][dK][dL]-NH2 / II: H-[dK][dL][dK]([dL-dK])[dK][dL][dK][dK][dL] / III: H-[dK][dL][dK]([dL-dK])[dK][dL] / IV: H-[dK][dL][dK]([dL-dK])[dK][dL]; amide I:6-IV:C, I:9-II:C, II:6-III:C)", "values": [{"measurement": "TI (MHC/MIC), B. subtilis BR151", "setting": "[1]", "value": 340}, {"measurement": "TI (MHC/MIC), E. coli DH5α", "setting": "[2]", "value": 679}, {"measurement": "TI (therapeutic index = MHC/MIC), P. aeruginosa PAO1", "setting": "[3]", "value": 170}]}
